These are yes or no findings as the source states them, for the method shown. Binding seen in cells or lysates may run through a third protein. Some binding calls cover weakened binding; strength is not graded here. One block for each binder: values may come before it.
Molecular target: T1, CD95 (human (endogenous in H9 and PBLs)), P25445
T1 chain: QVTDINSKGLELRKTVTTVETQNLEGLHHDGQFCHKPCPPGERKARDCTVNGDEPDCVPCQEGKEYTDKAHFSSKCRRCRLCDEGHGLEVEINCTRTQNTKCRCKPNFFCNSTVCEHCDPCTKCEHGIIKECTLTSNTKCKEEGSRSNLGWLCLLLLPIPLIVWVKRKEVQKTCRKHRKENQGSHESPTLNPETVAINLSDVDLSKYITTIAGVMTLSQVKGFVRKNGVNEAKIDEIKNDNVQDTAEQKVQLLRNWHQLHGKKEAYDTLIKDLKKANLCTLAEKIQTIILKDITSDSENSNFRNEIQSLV
Assay: co-IP; H9 T-cells and activated PBLs incubated with 1 µg/ml APO1-3 (15 min, 4°C or 37°C), lysed, CD95 immunoprecipitated with protein A-sepharose beads; immunoblots
Conditions: remark: other sources report otherwise

binding: binds
B1: FADD, Q13158 1-208 (protein)
chain: MDPFLVLLHSVSSSLSSSELTELKFLCLGRVGKRKLERVQSGLDLFSMLLEQNDLEPGHTELLRELLASLRRHDLLRRVDDFEAGAAAGAAPGEEDLCAAFNVICDNVGKDWRRLARQLKVSDTKIDSIEDRYPRNLTERVRESLRIWKNTEKENATVAHLVGALRSCQMNLVADLVQEVQQARDLQNRSGAMSPMSWNSDASTSEAS

binding: binds
B2: caspase-8, Q14790 1-479 (enzyme)
chain: MDFSRNLYDIGEQLDSEDLASLKFLSLDYIPQRKQEPIKDALMLFQRLQEKRMLEESNLSFLKELLFRINRLDLLITYLNTRKEEMERELQTPGRAQISAYRVMLYQISEEVSRSELRSFKFLLQEEISKCKLDDDMNLLDIFIEMEKRVILGEGKLDILKRVCAQINKSLLKIINDYEEFSKERSSSLEGSPDEFSNGEELCGVMTISDSPREQDSESQTLDKVYQMKSKPRGYCLIINNHNFAKAREKVPKLHSIRDRNGTHLDAGALTTTFEELHFEIKPHDDCTVEQIYEILKIYQLMDHSNMDCFICCILSHGDKGIIYGTDGQEAPIYELTSQFTGLKCPSLAGKPKVFFIQACQGDNYQKGIPVETDSEEQPYLEMDLSSPQTRYIPDEADFLLGMATVNNCVSYRNPAEGTWYIQSLCQSLRERCPRGDDILTILTEVNYEVSNKDDKKNMGKQMPQPTFTLRKKLVFPSD

— article PMC3119658
